According to article PMC10004598, “Identification and Characterization of a Novel Cathelicidin from Hydrophis cyanocinctus with Antimicrobial and Anti-Inflammatory Activity” (Molecules, 2023):
Converted amounts (≈) assume the structure as drawn.

How the values were obtained:
[1] = test system: Escherichia coli [ATCC 25922]; assay: microbe, parasite or virus in culture; details: ATCC25922
Procedure: (§1) The microorganisms (Staphylococcus aureus [ATCC 25923], Escherichia coli [ATCC 25922], and Propionibacterium acnes [ATCC 6919]) were obtained from Fuxiang Biotechnology (Shanghai, China). The five strains of K. pneumoniae clinical isolates (44, 48, 49, 50, and 51) were obtained from the Department of Critical Care Medicine, Shanghai Tenth People’s Hospital.
(§2) The antimicrobial assay was performed by broth microdilution method, following the guidelines of the Clinical and Laboratory Standards Institute. Strains (mentioned in Section 4.3) were inoculated into Mueller-Hinton broth (MH), oscillated (37 °C, 220 rpm, 12 h) to the logarithmic growth stage, and then diluted to 10^6 CFU/mL. […] Then, the absorbance was measured at 600 nm in a microplate reader (Epoch Biotek, Winooski, VT, USA). […] The minimum inhibitory concentration (MIC) was defined as the lowest concentration of an antimicrobial where there was no visible growth. After measuring the MIC, a 50 μL sample was taken from the growth well without visible bacteria, serially diluted with phosphate-buffered saline (PBS, pH = 7.0), then spread on an MH agar solid medium and incubated at 37 °C for 12 h. The number of colonies was calculated, and the minimum drug concentrations that killed 99.9% of bacteria were considered the minimum bactericidal concentration (MBC) of the peptide.

[2] = test system: Staphylococcus aureus [ATCC 25923]; assay: microbe, parasite or virus in culture; details: ATCC25923
Procedure: as §1, §2

`CC1(C)S[C@@H]2[C@H](NC(=O)[C@H](N)c3ccccc3)C(=O)N2[C@H]1C(=O)O` [Ampicillin, reference compound] showed an MIC [1] of 8 µg/mL (≈ 22.9 µM) and an MIC [2] of 0.25 µg/mL (≈ 0.715 µM).
